In article PMC12591392:
Results are given in words; binding and its absence hold for the method and conditions named. In cells and extracts the contact can be indirect. Some results given as binding are weak or reduced against the parent protein; the word gives no strength.

Amino acid sequences for entries named in this document (tags omitted).
UniProt Q15561: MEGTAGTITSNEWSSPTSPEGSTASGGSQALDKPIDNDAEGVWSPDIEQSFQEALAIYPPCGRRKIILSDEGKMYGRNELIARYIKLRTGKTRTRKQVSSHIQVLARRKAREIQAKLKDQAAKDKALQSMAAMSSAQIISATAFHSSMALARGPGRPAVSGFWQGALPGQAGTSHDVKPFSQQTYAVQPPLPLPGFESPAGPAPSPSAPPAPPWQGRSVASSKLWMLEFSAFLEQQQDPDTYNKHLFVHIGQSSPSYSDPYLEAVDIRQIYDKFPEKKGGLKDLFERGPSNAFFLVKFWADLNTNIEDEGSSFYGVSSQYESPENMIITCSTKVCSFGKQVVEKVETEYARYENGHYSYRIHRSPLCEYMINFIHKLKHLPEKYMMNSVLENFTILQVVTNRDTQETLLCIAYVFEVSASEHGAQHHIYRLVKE

Target: TEAD4 (UniProt Q15561)
Test: co-IP; E1B-55K and TEAD4 co-transfected in H1299 cells; co-immunoprecipitation in either direction, detected by Western blot; the methods do not describe the co-IP

adenoviral E1B-55K protein (HAdV-C5) (from UniProt P03243 1-496)
binding: binds
